# Test results: article PMC12781876
# These are yes or no findings as the source states them, for the method shown. In cells and extracts the contact can be indirect. For part of these data: A result given as binding can be weak or reduced; the word gives no strength. For part of these data: Tags and fused reporters may be left off the sequences shown.
# Legend:
# [1] = target: T1, GST–KpRtg1 (expressed in E. coli) (K. phaffii) (UniProt F2QMN0); assay: pull-down; GST-Rtg1 present in E. coli cell lysates immobilized onto glutathione Sepharose-4B beads; E. coli cell lysates containing MBP-Rtg3/RtgX added; after washing, beads analysed by SDS-PAGE and Coomassie Brilliant Blue staining; only the target purified
# T1 sequence: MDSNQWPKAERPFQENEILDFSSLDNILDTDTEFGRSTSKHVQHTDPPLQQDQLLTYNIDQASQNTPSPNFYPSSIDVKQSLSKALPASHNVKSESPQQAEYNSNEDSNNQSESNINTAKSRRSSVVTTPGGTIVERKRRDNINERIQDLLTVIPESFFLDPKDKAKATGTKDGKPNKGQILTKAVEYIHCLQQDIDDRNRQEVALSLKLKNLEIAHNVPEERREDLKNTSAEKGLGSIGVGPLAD
# [2] = target: T2, KpRtg1–GST (expressed in K. phaffii) (K. phaffii) (UniProt F2QMN0); assay: pull-down; KpRtg1-GST from K. phaffii lysate bound to GST beads and washed (1x PBS, 0.2% Triton X), used as bait; incubated with lysate containing KpRtgX-GFP from K. phaffii cells cultured in YNBM; 4°C, 2 h; western blot; only the target purified
# T2 sequence: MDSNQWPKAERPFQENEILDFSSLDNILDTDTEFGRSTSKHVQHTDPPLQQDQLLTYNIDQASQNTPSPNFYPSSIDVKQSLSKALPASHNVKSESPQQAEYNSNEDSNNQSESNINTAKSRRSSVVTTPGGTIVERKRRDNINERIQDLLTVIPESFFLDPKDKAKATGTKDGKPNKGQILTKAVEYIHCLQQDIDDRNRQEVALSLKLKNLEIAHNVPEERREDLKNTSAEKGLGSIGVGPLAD
# [3] = target: KpRtgX–GFP (expressed in K. phaffii) (K. phaffii); assay: pull-down; GST-tagged anti-GFP nanobody on glutathione beads as bait; 2 mg total lysate of K. phaffii cells cultured in YNB Glu containing both KpRtgX-GFP and KpRtg1-mCherry; 4°C, 2 h; washed with 1x PBS, 0.2% Triton X; western blot
molecule,measurement,setting,value
MBP–KpRtgX (expressed in E. coli) (K. phaffii),binding,[1],no binding
KpRtgX–GFP (expressed in K. phaffii),binding,[2],binds
"KpRtg1–mCherry (expressed in K. phaffii) (protein, UniProt F2QMN0 1-246) MDSNQWPKAERPFQENEILDFSSLDNILDTDTEFGRSTSKHVQHTDPPLQQDQLLTYNIDQASQNTPSPNFYPSSIDVKQSLSKALPASHNVKSESPQQAEYNSNEDSNNQSESNINTAKSRRSSVVTTPGGTIVERKRRDNINERIQDLLTVIPESFFLDPKDKAKATGTKDGKPNKGQILTKAVEYIHCLQQDIDDRNRQEVALSLKLKNLEIAHNVPEERREDLKNTSAEKGLGSIGVGPLAD",binding,[3],binds
